These are yes or no findings as the source states them, for the method shown. In cells and extracts the contact can be indirect. Some entries that bind do so weakly or less than the wild type.
Molecular target: Thyroid hormone receptor-interacting protein 12 (human (endogenous in T-REx 293 and HeLa)) (UniProt Q14669)
Assay: co-IP; HeLa whole cell extracts (500 ug), untreated or 1 h after 40 Gy IR; immunoprecipitation with anti-TRIP12 antibody (or control IgG), Protein G magnetic beads, 4 C; wash 20 mM HEPES pH 7.4, 100 mM NaCl, 0.05% NP-40; blot for Ku70 and TRIP12

Chains of the proteins cited; added tags and fusions are not shown. Lines headed by an entry give the natural chain unless they say otherwise; changes in a name come on top. A line that says so, or that is headed by a name, gives the form on record, which may keep a tag or linker.
Thyroid hormone receptor-interacting protein 12 (human (endogenous in T-REx 293 and HeLa)) (Q14669, form named): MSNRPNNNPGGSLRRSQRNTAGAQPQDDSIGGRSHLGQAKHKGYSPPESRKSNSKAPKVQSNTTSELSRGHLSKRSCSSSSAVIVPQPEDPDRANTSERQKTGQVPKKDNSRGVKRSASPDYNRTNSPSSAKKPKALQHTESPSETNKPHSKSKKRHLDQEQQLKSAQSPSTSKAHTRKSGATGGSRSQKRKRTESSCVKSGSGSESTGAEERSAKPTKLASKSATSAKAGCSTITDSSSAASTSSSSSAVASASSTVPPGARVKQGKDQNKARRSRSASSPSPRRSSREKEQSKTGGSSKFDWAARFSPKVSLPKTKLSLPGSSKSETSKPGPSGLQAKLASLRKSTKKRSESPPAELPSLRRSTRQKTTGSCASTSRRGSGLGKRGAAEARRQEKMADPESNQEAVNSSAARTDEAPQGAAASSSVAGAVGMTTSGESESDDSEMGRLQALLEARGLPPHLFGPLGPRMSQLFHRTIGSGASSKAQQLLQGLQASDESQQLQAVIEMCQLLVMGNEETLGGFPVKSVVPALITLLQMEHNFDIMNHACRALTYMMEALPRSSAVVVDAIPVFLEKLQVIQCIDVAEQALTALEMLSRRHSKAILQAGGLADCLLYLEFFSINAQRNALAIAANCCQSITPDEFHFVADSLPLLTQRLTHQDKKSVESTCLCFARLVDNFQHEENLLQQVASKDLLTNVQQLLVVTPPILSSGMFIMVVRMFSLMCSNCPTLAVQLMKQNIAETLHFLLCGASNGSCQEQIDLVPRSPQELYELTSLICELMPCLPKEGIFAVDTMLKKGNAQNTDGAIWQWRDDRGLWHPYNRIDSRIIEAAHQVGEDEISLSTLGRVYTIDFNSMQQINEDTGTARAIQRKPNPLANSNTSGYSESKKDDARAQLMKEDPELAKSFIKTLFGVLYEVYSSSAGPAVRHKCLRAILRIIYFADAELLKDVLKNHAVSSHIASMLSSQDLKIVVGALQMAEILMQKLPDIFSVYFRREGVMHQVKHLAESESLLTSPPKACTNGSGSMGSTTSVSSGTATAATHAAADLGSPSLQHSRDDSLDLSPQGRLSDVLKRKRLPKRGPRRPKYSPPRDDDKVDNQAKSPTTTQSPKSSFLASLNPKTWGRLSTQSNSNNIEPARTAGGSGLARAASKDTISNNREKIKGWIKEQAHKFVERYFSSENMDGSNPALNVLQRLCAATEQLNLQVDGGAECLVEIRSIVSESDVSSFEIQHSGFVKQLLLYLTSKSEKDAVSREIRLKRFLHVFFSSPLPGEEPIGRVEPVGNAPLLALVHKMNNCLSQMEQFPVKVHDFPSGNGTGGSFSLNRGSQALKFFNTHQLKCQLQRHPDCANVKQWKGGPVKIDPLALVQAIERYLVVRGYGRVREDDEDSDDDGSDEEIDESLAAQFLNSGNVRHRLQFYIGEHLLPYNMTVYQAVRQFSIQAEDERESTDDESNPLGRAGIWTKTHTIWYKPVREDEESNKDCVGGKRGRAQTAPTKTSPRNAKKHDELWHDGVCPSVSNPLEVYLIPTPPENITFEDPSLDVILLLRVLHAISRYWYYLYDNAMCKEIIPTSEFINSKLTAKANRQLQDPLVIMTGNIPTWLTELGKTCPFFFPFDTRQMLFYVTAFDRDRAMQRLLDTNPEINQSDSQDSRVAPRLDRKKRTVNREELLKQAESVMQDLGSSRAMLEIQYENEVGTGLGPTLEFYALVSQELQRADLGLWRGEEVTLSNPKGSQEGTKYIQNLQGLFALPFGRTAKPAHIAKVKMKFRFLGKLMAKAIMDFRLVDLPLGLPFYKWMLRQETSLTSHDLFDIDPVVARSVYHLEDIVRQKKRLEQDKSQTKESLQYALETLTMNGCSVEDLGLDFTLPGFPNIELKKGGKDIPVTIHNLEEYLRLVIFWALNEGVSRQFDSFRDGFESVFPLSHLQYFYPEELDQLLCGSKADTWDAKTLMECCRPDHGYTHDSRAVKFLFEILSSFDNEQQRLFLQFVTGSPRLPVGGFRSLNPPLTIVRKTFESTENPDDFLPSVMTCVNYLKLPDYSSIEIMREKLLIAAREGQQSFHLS
UniProt P12956: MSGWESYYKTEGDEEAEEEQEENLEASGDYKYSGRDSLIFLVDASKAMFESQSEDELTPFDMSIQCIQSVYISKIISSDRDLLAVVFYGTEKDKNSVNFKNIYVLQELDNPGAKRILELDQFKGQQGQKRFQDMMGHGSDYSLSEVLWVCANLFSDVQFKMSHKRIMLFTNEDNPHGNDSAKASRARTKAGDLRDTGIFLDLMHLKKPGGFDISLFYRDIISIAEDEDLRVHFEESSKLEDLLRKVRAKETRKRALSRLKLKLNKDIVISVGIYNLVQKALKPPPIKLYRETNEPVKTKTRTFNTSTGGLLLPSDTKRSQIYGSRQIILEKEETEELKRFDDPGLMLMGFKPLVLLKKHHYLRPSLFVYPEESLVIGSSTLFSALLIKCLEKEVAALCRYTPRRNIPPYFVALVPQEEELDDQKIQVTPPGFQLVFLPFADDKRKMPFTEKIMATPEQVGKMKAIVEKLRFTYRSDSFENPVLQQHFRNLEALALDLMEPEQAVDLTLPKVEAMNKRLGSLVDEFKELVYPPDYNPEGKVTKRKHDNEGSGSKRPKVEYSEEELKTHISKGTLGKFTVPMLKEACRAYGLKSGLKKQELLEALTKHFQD

binding: binds
Substance: endogenous Ku70 (from UniProt P12956 1-609)
